The data set can be described thus: self-splicing fitness, log relative to wild type (ln ratio); higher = more splicing; Tetrahymena group I intron in knt gene, E. coli kanamycin selection, DiMSum; sequences stand for … in CUCUCU…GGAGGGAAAAGUUAUCAGGCAUGCACCUGGUAGCUAGUCUUUAAACCAAUAGAUUGCAUCGGUUUAAAAGGCAAGACCGUCAAAUUGCGGGAAAGGGGUCAACAGCCGUUCAGUACCAAGUCUCAGGGGAAACUUUGAGAUGGCCUUGCAAAGGGUAUGGUAAUAAGCUGACGGACAUGGUCCUAACCACGCAGCCAAGUCCUAAGUCAACAGAUCUUCUGUUGAUAUGGAUGCAGUUCACAGACUAAAUGUCGGUCGGGGAAGAUGUAUUCUUCUCAUAAGAUAUAGUCGGACCUCUCCUUAAUGGGAGCUAGCGGAUGAAGUGAUGCAACACUGGAGCCGCUGGGAACUAAUUUGUAUGCGAAAGUAUAUUGAUUAGUUUUGGAGUACUCGUGGUCG
The essentials:
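Fitness was computed with DiMSum as the error-weighted combination of replicate fold changes, kanamycin versus none, each normalised to wild type. The library randomised all eight intron nucleotides of the P1ex region, with the intron placed in the knt kanamycin-resistance gene on pET-22b(+) in E. coli BL21(DE3). Six replicate transformations were grown overnight at 37°C or 30°C on LB agar with or without 25 μg/mL kanamycin, plus 100 μg/mL carbenicillin, 50 μM IPTG and 0.2% rhamnose. Pooled colonies were amplicon-sequenced on an Illumina HiSeq 2500.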

± gives the uncertainty stated by the source. Many entries were measured with a wide error.

Turning to UUAGAGCAAUAUUACGCCGU, the “self-splicing fitness (ln)” value is -2.72 ± 0.53 (30 °C) and -1.21 ± 0.68 (37 °C).
On the same counts, the results for ACCAAGCAAUAUUACGGUAU are -3.45 ± 0.13 and -0.475 ± 0.094.
Taken in the same sequence, the figures for GUCAAGCAAUAUUACGACUA were -3.5 ± 0.18 and -2.03 ± 0.12.
Turning to GUGGAGCAAUAUUACGAUCC, the “self-splicing fitness (ln)” value is -2.49 ± 0.2 (30 °C) and -1.13 ± 0.28 (37 °C).
With UGUUAGCAAUAUUACGACCC, the “self-splicing fitness (ln)” value reads like this: (30 °C) -2.01 ± 0.58; (37 °C) -1.07 ± 0.74.
AUCGAGCAAUAUUACGUUUC: for the setting “30 °C”, the “self-splicing fitness (ln)” value is -4.74 ± 0.59.
As for UGGUAGCAAUAUUACGUGUC, under “37 °C”, the “self-splicing fitness (ln)” value is -2.36 ± 0.64.
Turning to CCUAAGCAAUAUUACGCCGC, the “self-splicing fitness (ln)” value is, setting by setting: (30 °C) -1.12 ± 0.76; (37 °C) -1.62 ± 1.1.
Take AUCGAGCAAUAUUACGCGAU: the “self-splicing fitness (ln)” value (37 °C) is -1.37 ± 0.71.
As for GAUGAGCAAUAUUACGCAUU, for the setting “30 °C”, the “self-splicing fitness (ln)” value was -3.87 ± 1.
Regarding GUUAAGCAAUAUUACGUACC, where the note is “37 °C”, the “self-splicing fitness (ln)” value was -1.11 ± 0.9.
Regarding GCAAAGCAAUAUUACGGAUA, the “self-splicing fitness (ln)” value was -2.49 ± 0.13 (30 °C) and -1.6 ± 0.1 (37 °C).
On to CUGCAGCAAUAUUACGAUAC, for which the “self-splicing fitness (ln)” value (37 °C) is -2.83 ± 0.53.
For GCAGAGCAAUAUUACGGAAC, the “self-splicing fitness (ln)” value (30 °C) was -5.05 ± 0.59.
Consider UCCUAGCAAUAUUACGAUCC, for which the “self-splicing fitness (ln)” value (37 °C) was -2.55 ± 0.76.
CCGUAGCAAUAUUACGACGC: the “self-splicing fitness (ln)” value (30 °C) was -4.24 ± 0.6.
Consider CAUGAGCAAUAUUACGCACC, for which the “self-splicing fitness (ln)” value is, setting by setting: (30 °C) -1.64 ± 0.6; (37 °C) -0.12 ± 0.74.
With AUUAAGCAAUAUUACGAUGU, the “self-splicing fitness (ln)” value by setting is: (30 °C) -0.608 ± 0.07; (37 °C) -0.0076 ± 0.084.
UCUAAGCAAUAUUACGGACU: the “self-splicing fitness (ln)” value (30 °C) was -3.51 ± 0.28 and the “self-splicing fitness (ln)” value (37 °C) is -2.84 ± 0.27.
UCGGAGCAAUAUUACGCCUC: the “self-splicing fitness (ln)” value runs as follows: (30 °C) -2.87 ± 1.1; (37 °C) -1.98 ± 0.66.
Taken in the same sequence, the figures for GCUGAGCAAUAUUACGAAGC were -3.89 ± 1 and -2.89 ± 1.1.
For CUUUAGCAAUAUUACGACGA, the “self-splicing fitness (ln)” value (30 °C) is -3.83 ± 0.72.
Same read-out and setting: for CGUAAGCAAUAUUACGCCUA the value was -3.17 ± 0.62.
As to GUAGAGCAAUAUUACGGCAA, the “self-splicing fitness (ln)” value (30 °C) was -2.01 ± 0.13 and the “self-splicing fitness (ln)” value (37 °C) was -0.535 ± 0.21.
Consider GAGGAGCAAUAUUACGAAUU, for which, for the setting “37 °C”, the “self-splicing fitness (ln)” value is -3.2 ± 0.52.
GGAUAGCAAUAUUACGUUUC: the “self-splicing fitness (ln)” value (30 °C) was -3.64 ± 1.
GCUUAGCAAUAUUACGCCAA: the “self-splicing fitness (ln)” value (37 °C) was -2.23 ± 0.57.
As for GGACAGCAAUAUUACGACGU, the “self-splicing fitness (ln)” value is, setting by setting: (30 °C) -0.177 ± 0.06; (37 °C) 0.587 ± 0.075.
GAUGAGCAAUAUUACGAUGU: the “self-splicing fitness (ln)” value runs as follows: (30 °C) -2.63 ± 0.25; (37 °C) -2.15 ± 0.35.
As to CCAAAGCAAUAUUACGGAAC, the “self-splicing fitness (ln)” value (30 °C) is -4.57 ± 0.59.
As to CUAAAGCAAUAUUACGCAAU, the “self-splicing fitness (ln)” value by setting is: (30 °C) -3.94 ± 0.21; (37 °C) -2.97 ± 0.24.
AAGUAGCAAUAUUACGCUGC: under “30 °C”, the “self-splicing fitness (ln)” value was -4.46 ± 1.
For UGUGAGCAAUAUUACGAUAU, the “self-splicing fitness (ln)” value (30 °C) was -2.31 ± 0.22 and the “self-splicing fitness (ln)” value (37 °C) was -1.66 ± 0.37.
As to UGUGAGCAAUAUUACGAAGA, the “self-splicing fitness (ln)” value (37 °C) is -2.97 ± 0.54.
As to UGUGAGCAAUAUUACGCCUU, the “self-splicing fitness (ln)” value (37 °C) was -1.47 ± 0.87.
Consider AAUGAGCAAUAUUACGAACC, for which the “self-splicing fitness (ln)” value by setting is: (30 °C) -2.09 ± 0.76; (37 °C) -1.29 ± 0.87.
Regarding AGAGAGCAAUAUUACGCCCU, the “self-splicing fitness (ln)” value (37 °C) is -3.53 ± 1.
With AGAGAGCAAUAUUACGCUUC, the “self-splicing fitness (ln)” value is -3.91 ± 0.53 (30 °C) and -1.57 ± 0.6 (37 °C).
On the same counts, the results for CUCGAGCAAUAUUACGUCGU are -1.77 ± 0.26 and -1.88 ± 0.37.
Consider AUCAAGCAAUAUUACGGGCA, for which the “self-splicing fitness (ln)” value by setting is: (30 °C) -1.42 ± 0.098; (37 °C) -0.95 ± 0.098.
Regarding UAGAAGCAAUAUUACGAGUA, the “self-splicing fitness (ln)” value by setting is: (30 °C) -1.31 ± 0.096; (37 °C) -0.33 ± 0.12.
Take UGGUAGCAAUAUUACGGAGA: the “self-splicing fitness (ln)” value (30 °C) was -3.01 ± 0.62.
As to AGCCAGCAAUAUUACGUUUA, the “self-splicing fitness (ln)” value (30 °C) was -2.7 ± 0.35 and the “self-splicing fitness (ln)” value (37 °C) is -2.48 ± 0.38.
Turning to UCAAAGCAAUAUUACGCUCC, where the note is “30 °C”, the “self-splicing fitness (ln)” value was -3.3 ± 0.54.

The values are drawn from the supplement of paper PMC7877785.
